Binding data for one molecule are collected here from PMC7748142.

Chains of the proteins cited; added tags and fusions are not shown. Lines headed by an entry give the natural chain unless they say otherwise; changes in a name come on top.
UniProt P10599: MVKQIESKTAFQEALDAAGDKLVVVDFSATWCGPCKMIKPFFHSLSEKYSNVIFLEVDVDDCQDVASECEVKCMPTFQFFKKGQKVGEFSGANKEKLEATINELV

These are yes or no findings as the source states them, for the method shown. Binding seen in cells or lysates may run through a third protein. For some assays here: Binding calls can cover weak binding; strength is not graded here.

The target in assay [1] is TRX1 trapping mutant (TRX1-CS) (UniProt P10599). Nature of the assay: condition: only unstimulated cells (no oxidative stimulus); pull-down; kinetic trapping as a1, but cells left untreated (unstimulated); TRX1 pulled down on streptavidin agarose; Western blot. A general note: A western blot detects proteins with antibodies after separation by electrophoresis.
The target is the same in assay [2]. In words: pull-down; kinetic trapping: HEK 293T cells expressing SBP/His-tagged TRX1 variants, oxidative stimulus (H2O2 10 mM or 1 mM, 15 min; or Auranofin 4 uM, 4 h; with or without KU55933 10 uM, 1 h pre-treatment); lysis in Triton X buffer with 50 mM NEM; TRX1 pulled down overnight at 4 °C on streptavidin agarose; Western blot.

B1: peroxiredoxin 1 (PRDX1) (enzyme, UniProt Q06830 1-199)
chain: MSSGNAKIGHPAPNFKATAVMPDGQFKDISLSDYKGKYVVFFFYPLDFTFVCPTEIIAFSDRAEEFKKLNCQVIGASVDSHFCHLAWVNTPKKQGGLGPMNIPLVSDPKRTIAQDYGVLKADEGISFRGLFIIDDKGILRQITVNDLPVGRSVDETLRLVQAFQFTDKHGEVCPAGWKPGSDTIKPDVQKSKEYFSKQK
As for B1, the binding entry in assay [1] is “no binding”; in assay [2], “binds”.
